# From PubChem BioAssay AID624297 (National Center for Advancing Translational Sciences (NCATS), 2012)
# About 6,200 (1.8%) of roughly 340,000 compounds were called active. Inconclusive results, whose numbers are uncertain, are shown with a selection of clear calls. The call rests on the fitted dose curve; in most records, active means well fitted activation curve with a large enough effect; inconclusive means small, poorly fitted or top-dose-only effect; inactive means no such curve, though single readings can be large or run the other way. Potencies of inconclusive entries are doubtful fits and often do not repeat.
# Experiment: A quantitative high throughput screen for small molecules that induce DNA re-replication in SW480 colon adenocarcinoma cells. Further: nearly all actives have a fitted effect of over 55% in size. On re-replication activation: % of control where 0% means no effect.
# Conditions: Hoechst DNA content imaging, 48 h; re-replication activation: at 46.1 µM (top of the series) unless noted
# Method in brief: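 250 cells/well; 23 nL cpd via pin tool; 48 hr, 37 C, 5% CO2; Hoechst 40 min; imager read of total nuclear intensity, ex 405/em 500-530 nm.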
# Potency means the concentration at half of the fitted maximal effect.
SMILES,re-replication activation,Potency
CCC(C)c1ccc(NC(=S)Nc2ccc(OC)c(OC)c2)cc1 (stereo unspecified),inactive: -1.68% [at 9.22 µM],–
O=C(CCSc1ccccc1)Nc1ccc(S(=O)(=O)Nc2ncccn2)cc1,inactive: 12.3%,–
COc1ccc(N2CCN(Cc3nnc(-c4ccccc4)o3)CC2)cc1,–,"inconclusive: 29.1 µM [activator, single point]"
COc1ccc(-c2ccnc(SCC(=O)N3CCOCC3)n2)cc1,–,"inconclusive: 4.11 µM [activator, single point]"
Cc1ccc(N2C(=O)c3ccccc3C2=O)cc1,inactive: 2.67%,–
CCCCOC(=O)C1CN(c2ccccc2)N=C1C(C)=O (stereo unspecified),–,"inconclusive: 0.651 µM [activator, full curve, poor fit]"
CCC1=C(OC(=O)N(CC)CC)N2C(=O)OC(=NCC3CC3)[C@]2(C)[C@H]2C1=CC[C@H]1C(=O)NC(=O)[C@H]12,–,"inconclusive: 2.91 µM [activator, single point]"
COc1ccccc1Nc1ccc(N)cc1,–,"inconclusive: 23.1 µM [activator, single point]"
c1cncc(CNc2cccc(-c3nc4ccccc4[nH]3)c2)c1,–,"inconclusive: 0.0046 µM [activator, full curve, poor fit]"
Cc1ccc(Nc2c(-c3ccccn3)nc3ccc(C)cn23)cc1,–,active: 20.6 µM
CN1CCN(/C=C2\SC(=S)NC2=O)CC1,inactive: -4.37% [at 9.22 µM],–
CCOC(=O)c1ccc(NC(=O)c2nn(CC)cc2Br)cc1,inactive: 1.18%,–
C=C(CCC(=O)c1ccccc1)C(=O)c1ccccc1,–,"inconclusive: 10.3 µM [activator, partial curve, poor fit]"
N#CC(c1ccc(F)cc1)c1ccc(C(=O)c2ccc(F)cc2)cc1 (stereo unspecified),–,"inconclusive: 29.1 µM [activator, partial curve, poor fit]"
Oc1cc2ccccc2cc1-c1n[nH]c(=S)o1,inactive: 0.814%,–
COCCN(C(=O)COC(=O)CCc1ccccc1OC)c1c(N)n(Cc2ccccc2)c(=O)[nH]c1=O,–,"inconclusive: 20.6 µM [activator, partial curve, poor fit]"
CC(=O)Nc1ccc(S(=O)(=O)N(C)CC(=O)OC(C)C(=O)N(C)Cc2ccccc2)cc1 (stereo unspecified),inactive: -1.92%,–
CCCCCCC[C@@H](C/C=C/CCC(=O)N(C)C/C(=C/Cl)C/C(=C\C(=O)N1C[C@H](O)CC1=O)OC)OC,–,"inconclusive: 6.51 µM [activator, partial curve, poor fit]"
COc1ccc(NC(=O)C(=O)NCCC2CCCCN2S(=O)(=O)c2cccs2)cc1 (stereo unspecified),–,active: 4.47 µM
CC(C)(C)OC(=O)NCCCCCNC(=O)c1[nH]cnc1C(=O)N[C@@H](Cc1ccccc1)C(=O)OC(C)(C)C,–,"inconclusive: 32.6 µM [activator, partial curve, poor fit]"
COc1ccc(C2C(C(C)=O)=C(O)C(=O)N2c2nc3ccccc3s2)cc1OC (stereo unspecified),–,"inconclusive: 20.6 µM [activator, single point]"
O=C1SCC(c2ccc(Cl)cc2Cl)=NN1Cc1nnc(-c2ccccc2)o1,inactive: -75.8%,–

SMILES,re-replication activation,Potency
O=C(c1cccn2c(=O)c3ccc(Cl)cc3nc12)N1CCN(Cc2ccc3c(c2)OCO3)CC1,–,active: 16.4 µM
O=C1c2ccccc2C(=O)c2c(O)c(O)cc(O)c21,inactive: -0.285%,–
CC(C)(C)C1CCC(C(=O)Nc2ccccc2)CC1 (stereo unspecified),–,"inconclusive: 29.1 µM [activator, single point]"
Cc1cc(C)c(C(=O)COc2cccnc2[N+](=O)[O-])cc1C,–,"inconclusive: 20.6 µM [activator, single point]"
CCOC(=O)C1CCN(S(=O)(=O)CCNC(=O)c2ccccc2)CC1,–,"inconclusive: 23.1 µM [activator, partial curve, poor fit]"
CC(OC(=O)c1ccccc1NCCO)C(=O)Nc1ccc(S(=O)(=O)N2CCOCC2)cc1 (stereo unspecified),–,"inconclusive: 25.9 µM [activator, single point]"
COc1ccc(CN2C[C@H]3CCCN3c3cc(Br)ccc3S2(=O)=O)cc1,–,active: 1.64 µM
CN(C)CCNC(=O)c1sc2cccc(F)c2c1Cl,–,"inconclusive: 25.1 µM [activator, single point]"
CN(C)c1oc(-c2ccccc2[N+](=O)[O-])nc1C#N,–,"inconclusive: 0.731 µM [activator, partial curve, poor fit]"
Cc1ccccc1OCC(=O)O/N=C(\N)c1ccncc1,inactive: -6.29%,–
C=CCn1c(CCNC(=O)c2cccs2)n[nH]c1=S,–,"inconclusive: 18.4 µM [activator, single point]"
CCCCCOc1ccc(C(=O)NCC(=O)NCC(=O)OCC)cc1,–,"inconclusive: 18.4 µM [activator, single point]"
COc1ccc(C(=O)c2c(C)oc3ccc(O)c(CN4CCOCC4)c23)cc1,inactive: 2.08%,–
O=C(NCC(c1cccs1)N1CCc2ccccc21)c1ccccc1 (stereo unspecified),–,"inconclusive: 20.6 µM [activator, single point]"
FC(F)(F)c1cccc(-c2cc(C3CCNCC3)[nH]n2)c1,–,"inconclusive: 32.6 µM [activator, partial curve, poor fit]"
Cc1ccc(CNC(=O)Cn2nnc(C(=O)Nc3ccc(Br)cc3)c2N)cc1,–,"inconclusive: 29.1 µM [activator, single point]"
CCOC(=O)c1ccc(NC(=O)c2ccc(C)c(S(=O)(=O)N3CCOCC3)c2)cc1,inactive: 2.15%,–
COc1ccc(OC)c(NC(=S)N(CCc2c(C)[nH]c3ccccc23)Cc2cccs2)c1,–,"inconclusive: 23.1 µM [activator, partial curve, poor fit]"
N/C(=N\OC(=O)Nc1ccccc1)c1ncc([N+](=O)[O-])s1,–,"inconclusive: 4.61 µM [activator, full curve, poor fit]"
Cc1ccc2c(c1)[nH]c1c(=O)n(Cc3ccco3)cnc12,–,"inconclusive: 16.4 µM [activator, partial curve, poor fit]"
Cc1csc(=O)n1CC(=O)OCC(=O)c1c(N)n(CC(C)C)c(=O)n(C)c1=O,–,active: 6.51 µM
Cc1ccc(C)c(-n2c(-c3csc(C)c3)n[nH]c2=S)c1,–,"inconclusive: 29.1 µM [activator, single point]"

# Part of the list above in order of SMILES length, low to high:
SMILES,re-replication activation,Potency
CCCCOC(=O)C1CN(c2ccccc2)N=C1C(C)=O (stereo unspecified),–,"inconclusive: 0.651 µM [activator, full curve, poor fit]"
COc1ccc(NC(=O)C(=O)NCCC2CCCCN2S(=O)(=O)c2cccs2)cc1 (stereo unspecified),–,active: 4.47 µM
CCOC(=O)c1ccc(NC(=O)c2ccc(C)c(S(=O)(=O)N3CCOCC3)c2)cc1,inactive: 2.15%,–

# (continued)

SMILES,re-replication activation,Potency
O=C1C(=Cc2ccco2)CCC1=Cc1ccco1,–,"inconclusive: 29.1 µM [activator, single point]"
COc1ccc2nc(NC(=O)c3ccccc3-c3ccccc3C(=O)O)sc2c1,–,"inconclusive: 16.4 µM [activator, single point]"
CCC(NS(=O)(=O)c1ccc2c(c1)NC(=O)C(C)C(=O)N2)c1cccs1 (stereo unspecified),inactive: -18.8%,–
CO/N=C/CC(=O)Nc1ccc(F)cc1F,–,"inconclusive: 0.146 µM [activator, full curve, poor fit]"
O=C(Nc1cccnc1)c1sc(Nc2ccccc2F)nc1-c1ccccc1,–,"inconclusive: 18.4 µM [activator, single point]"
CSc1ncc(Cl)c(C(=O)Nc2ccc(C)c(C)c2)n1,–,"inconclusive: 0.103 µM [activator, full curve, poor fit]"
O=C(O)CCC(=O)NCCn1c(-c2ccccc2)csc1=Nc1ccccc1,–,"inconclusive: 29.1 µM [activator, single point]"
Cc1ccc2cc(C#N)c(NCCNC(=O)C3CC3)nc2c1C,–,"inconclusive: 16.4 µM [activator, partial curve, poor fit]"
O=C(CN(CCN1CCOCC1)C(=O)Cn1nnc(-c2ccc(F)cc2)n1)NC1CCCCC1,inactive: 0.351%,–
O=c1oc2cc(OCc3ccc(C(F)(F)F)cc3)ccc2cc1-c1ccccn1,–,"inconclusive: 23.1 µM [activator, partial curve, poor fit]"
O=C(N/N=C/C1=Cc2ccccc2OC1)c1ccncc1,–,active: 18.4 µM
NC(=S)N/N=C/c1ccccc1OCCSc1ccc(Cl)cc1,–,"inconclusive: 16.4 µM [activator, partial curve, poor fit]"
O=C(O)c1ccc2c(c1)C(=O)N(c1cccc(-c3nc4ccccc4s3)c1)C2=O,inactive: 5.49%,–
CC(=O)c1cccc(NS(=O)(=O)c2ccc(N/C=C/C(=O)c3ccc(F)cc3)cc2)c1,–,"inconclusive: 29.1 µM [activator, partial curve, poor fit]"
Cc1ccc(OCc2cc(C(=O)N(C)CCc3nc4ccccc4[nH]3)no2)cc1C,–,"inconclusive: 4.11 µM [activator, full curve, poor fit]"
CC(C)(C)c1ccc(C(=O)NCC(=O)OCC(=O)N2CCN(S(=O)(=O)c3ccc(Cl)cc3)CC2)cc1,–,"inconclusive: 29.1 µM [activator, single point]"
COc1ccc(-c2csc(N(CCCN(C)C)C(=O)c3ccc(C(C)(C)C)cc3)n2)cc1,–,"inconclusive: 20.6 µM [activator, single point]"
COc1ccc(C2=NOC(Cn3nc(-c4ccccc4)cc3C(=O)NCc3cccs3)C2)cc1 (stereo unspecified),–,"inconclusive: 29.1 µM [activator, partial curve, poor fit]"
CN1c2ccccc2N(C)C1c1ccc2c(c1)OCO2,inactive: 0.978%,–
COc1cc(OC)cc(-c2cc3nc(C)c(CCC(=O)NC(C)CCc4ccco4)c(C)n3n2)c1 (stereo unspecified),inactive: -2.68%,–
CCC(=O)Nc1sc(Cc2ccc3c(c2)OCO3)c(C)c1C(N)=O,–,"inconclusive: 32.6 µM [activator, partial curve, poor fit]"
CCN1CCN(c2ccc(NC(=O)CCc3c(C)nc4c(-c5ccccc5)c(C)nn4c3C)cc2)CC1,–,"inconclusive: 16.4 µM [activator, single point]"
